This test addresses T1, FLAG-KDM4D (mouse) (UniProt Q3U2K5).
T1 sequence: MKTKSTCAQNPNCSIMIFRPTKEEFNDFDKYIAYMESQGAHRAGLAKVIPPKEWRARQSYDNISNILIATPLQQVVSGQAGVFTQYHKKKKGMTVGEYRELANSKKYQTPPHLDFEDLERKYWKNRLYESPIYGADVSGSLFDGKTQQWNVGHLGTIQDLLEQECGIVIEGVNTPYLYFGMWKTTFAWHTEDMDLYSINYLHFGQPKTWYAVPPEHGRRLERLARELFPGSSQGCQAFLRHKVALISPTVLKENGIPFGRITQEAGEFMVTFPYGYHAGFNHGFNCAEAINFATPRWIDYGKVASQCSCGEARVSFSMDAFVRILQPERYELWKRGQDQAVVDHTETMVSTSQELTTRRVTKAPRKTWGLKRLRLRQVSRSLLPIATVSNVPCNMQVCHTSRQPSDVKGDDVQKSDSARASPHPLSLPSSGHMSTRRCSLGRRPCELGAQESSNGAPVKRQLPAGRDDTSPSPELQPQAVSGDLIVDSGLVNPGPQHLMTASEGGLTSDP
The test can be described thus: affinity purification with mass spectrometry; nuclear extracts (RIPA buffer, sonicated) of C3H10T1/2 cells expressing full length FLAG-KDM4D incubated with FLAG-M2 agarose for 16 h at 4 °C; SDS-PAGE, LC-MS/MS.

Protein sequences, listed by entry. Tags and fused reporters are not part of them.
UniProt Q8K4B0: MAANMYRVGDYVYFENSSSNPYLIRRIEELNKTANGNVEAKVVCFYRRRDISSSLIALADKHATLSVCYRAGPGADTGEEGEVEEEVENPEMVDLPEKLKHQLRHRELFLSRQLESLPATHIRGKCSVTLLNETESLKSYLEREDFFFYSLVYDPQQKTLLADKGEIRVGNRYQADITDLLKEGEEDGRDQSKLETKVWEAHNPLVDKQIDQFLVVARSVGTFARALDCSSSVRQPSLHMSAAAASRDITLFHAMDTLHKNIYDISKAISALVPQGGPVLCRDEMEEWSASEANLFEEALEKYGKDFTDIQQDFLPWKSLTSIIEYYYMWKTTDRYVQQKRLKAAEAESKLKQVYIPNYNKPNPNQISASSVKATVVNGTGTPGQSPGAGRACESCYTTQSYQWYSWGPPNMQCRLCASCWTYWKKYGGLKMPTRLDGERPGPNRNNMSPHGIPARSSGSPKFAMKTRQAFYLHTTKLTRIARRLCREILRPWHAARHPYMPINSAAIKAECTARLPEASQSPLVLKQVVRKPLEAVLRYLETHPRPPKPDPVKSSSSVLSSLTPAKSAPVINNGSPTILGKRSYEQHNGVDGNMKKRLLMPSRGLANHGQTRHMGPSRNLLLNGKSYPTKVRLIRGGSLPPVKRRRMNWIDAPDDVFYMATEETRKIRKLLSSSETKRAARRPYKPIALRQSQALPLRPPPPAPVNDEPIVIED
UniProt Q9R190: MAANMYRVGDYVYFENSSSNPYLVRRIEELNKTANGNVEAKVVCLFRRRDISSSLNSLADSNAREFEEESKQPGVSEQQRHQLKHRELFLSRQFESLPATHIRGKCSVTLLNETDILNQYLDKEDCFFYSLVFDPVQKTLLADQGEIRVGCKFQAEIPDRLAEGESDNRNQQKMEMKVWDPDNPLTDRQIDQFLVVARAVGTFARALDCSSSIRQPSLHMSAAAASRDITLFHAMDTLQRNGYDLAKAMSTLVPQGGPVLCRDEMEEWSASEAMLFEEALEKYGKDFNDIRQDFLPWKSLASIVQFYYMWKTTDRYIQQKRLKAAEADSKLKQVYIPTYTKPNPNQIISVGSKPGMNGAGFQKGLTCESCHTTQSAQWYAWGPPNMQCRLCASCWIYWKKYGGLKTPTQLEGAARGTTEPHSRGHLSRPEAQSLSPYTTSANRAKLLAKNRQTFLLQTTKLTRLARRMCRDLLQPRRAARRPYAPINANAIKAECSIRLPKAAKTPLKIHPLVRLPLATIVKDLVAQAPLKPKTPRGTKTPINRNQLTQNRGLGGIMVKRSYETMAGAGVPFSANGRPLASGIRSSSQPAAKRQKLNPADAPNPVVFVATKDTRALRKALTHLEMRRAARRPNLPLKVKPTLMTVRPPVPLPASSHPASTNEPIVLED

These are yes or no findings as the source states them, for the method shown. Binding seen in cells or lysates may run through a third protein. A yes stands for co-enrichment or nearness to the bait. Other partners may have been found. Where a sequence is shown, tags or fusion partners need not be part of it.

Regarding Mta1 (from UniProt Q8K4B0 1-715), the binding result is “binds”.
For the substance Mta2 (from UniProt Q9R190 1-668), the binding result is “binds”.

For the origin of these results see paper PMC7033117.
